Reference: US9952227B2, “Method for detecting bilirubin” (Research Foundation of the City University of New York, priority 2015, dated 2018)

B1: Chlopsid FP I: bilirubin-inducible fluorescent fatty acid-binding protein from Kaupichthys hyoproroides, SEQ ID NO: 1 (protein)
chain: MFEDFLGTWKCIDSQNFGAYLAAIGAPPVLSERADATRPTVHFNRDGDKLSLKVEHGPPPLKDVLLSFKLGEEFDEHPTDGRKCKTLVTFEGDKLLYLQKWDGKETVVVREIRDGNVVATLSHEGVVALRVYKKVAGPTALE
modifications: Kaupichthys hyoproroides
B2: Chlopsid FP II: bilirubin-inducible fluorescent fatty acid-binding protein from Kaupichthys n. sp., SEQ ID NO: 2 (protein)
chain: MFEDFLGTWECIDSQNFGAYLAAVGAPPVLSDRADATRPTVYFNRDGDKLSLKVEHGPPPLKDVILSFKLGEEFDEHPTDGRKCKTLVTFEGDKLLYLQKWDGKETVVVREIRDGNVVATLSHEGVVALRVYKKVAGPTA
modifications: Kaupichthys hyoproroides

Experiment: O2 requirement for fluorescence
Type: physicochemical

Molecule | O2 requirement
B1 | no
B2 | no
